No constants are given. Whether binding was seen depends on the method and setting. Some binding calls cover weakened binding; strength is not graded here.
T1: Sis1_(1–81), J-domain of Sis1 (residues 1–81) (S. cerevisiae) (UniProt P25294)
T1 sequence: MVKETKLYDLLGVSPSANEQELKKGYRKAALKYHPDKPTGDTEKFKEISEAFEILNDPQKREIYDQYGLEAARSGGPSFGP


Molecular target: T1, Sis1_(1–81), J-domain of Sis1 (residues 1–81) (S. cerevisiae)
Assay: NMR titration; 1H-15N HSQC of 15N-Sis1(1-81) (1 mM by the legend, 0.5 mM by the methods) free and with 1, 2 and 4 mM GPTIEEVD (1:4 for CSP); 25 mM Tris-HCl pH 7.5, 200 mM NaCl, 10% D2O, 298 K; fast exchange; both purified

| Binder | binding |
| --- | --- |
| GPTIEEVD (also called Ssa1-EEVD; source: synthetic peptide (GenOne Biotechnologies, Rio de Janeiro)) [GPTIEEVD peptide (EEVD peptide, C-terminal motif of HSP70/Ssa1)] | binds weakly |
| Sis1_(1–81), J-domain of Sis1 (residues 1–81) (domain or fragment, UniProt P25294 1-81) MVKETKLYDLLGVSPSANEQELKKGYRKAALKYHPDKPTGDTEKFKEISEAFEILNDPQKREIYDQYGLEAARSGGPSFGP | no binding |

Source: publication PMC11722011, “NMR Studies on the Structure of Yeast Sis1 and the Dynamics of Its Interaction with Ssa1-EEVD” (Molecules, 2024)
